According to PubChem BioAssay AID1347423 (Functional Genomics Laboratory (NCATS/FGL), 2020):
Among all 52,000 sequences or so, about 210 (0.4%) were called active.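 The calls were made as follows: active = gene whose silencing raises cell survival under the drug, median off-target-corrected z-score across its silencing RNAs 2 or more; inactive = the rest.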 This is one part of the list.

Assay: Resistance to Poly (ADP-Ribose) Polymerase inhibitor: Gene Identification via Genome-wide siRNA Screen
Conditions: mouse BRCA2 R2336H ES cells, olaparib, CellTiter-Glo viability; active compounds read high
Summary of the method: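 Genome-wide siRNA screen (3 siRNAs/gene, 20 nM) in mouse ES cells carrying hypomorphic BRCA2 R2336H; olaparib 500 nM added 48 h post-transfection, CellTiter-Glo viability 72 h later. Normalized to plate-median negative control; MAD z-scores, gene median, seed-adjusted.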

Sequence	z-score
CGUGAAAUAAACAGUCUGATT against Ranbp2	inactive: -1.18
CCGAGCAAAAUCUCAAAUUTT against Mdh1	inactive: 0.503
CCUUAAUCAUUAGGAUUGCTT against 2700038I16Rik	inactive: 0.41
GGCAGAGCCUGGAUUUAUCTT against 2610524H06Rik	inactive: 0.2
GGCUGAGCACAAUAAUCCCTT against Ndufs7	inactive: -0.279
GGUCAGAUUCGGAAACCAGTT against D10Ertd718e	inactive: -1.54
GGAUGAAGAGCAUAACAGUTT against 2010005O13Rik	inactive: -1.02
GGUCAACUCCUUUAUGAGCTT against Apoa4	inactive: 0.58
GCUGGACAUCAAUACGGUGTT against Oplah	inactive: -1.11
GGUGAAGAUCAUAUAAAAGTT against B230205M03	inactive: 1.02
GGCAGAAAGACAUUUUCUUTT against 4921524P20Rik	inactive: -1.22
GGGAAAUCAGAUAAAGCCCTT against 2900073G15Rik	inactive: 0.2
GCUUUUCCGUGAUCAUACATT against Tex14	inactive: -1.6
GGCAAGGUCUUCAAAGCGCTT against 2410081M15Rik	inactive: 0.562
GCAAUUACAGGAGGAAUUATT against Orc3l	inactive: -0.776
GGAGCUCCUCUGAAUGCUCTT against Arhgef15	inactive: -0.285
GGCAAGAGAAUUGUAUACATT against 1810010O14Rik	inactive: -1.28
GGGAAGCAAUAAGUCGCCUTT against 6230417E10Rik	inactive: 0.723
GGAUGCUCAACACUACGCUTT against Avp	inactive: 0.831
GGCAAACAAAACAAACUGATT against Tram1l1	inactive: -0.244
GGACAUCAAUUCAACAGUUTT against Lifr	inactive: 1.04
GGCAGAUGAGGGCUUAGCATT against 6530402N02Rik	inactive: 0.211
GGAAAAGACAAGCAUACGATT against Tmem16f	inactive: -0.678
GAUGCUGCCAACAUGACACTT against Clps	inactive: -2.58
GGAGUCAAGUCCACAUACATT against Usp47	active: -0.927
CGCAAUGGAAGUCUAUCUUTT against Zdhhc5	inactive: 0.131

Sequence	z-score
GGAGUGUUGAAGAAUAAGATT against Siat10	inactive: 0.0815
GGCUGUGUUGAGUUUUCACTT against Abcg3	inactive: 0.191
UGAUCUACACUUUGGCUGUTT against Olfr232	inactive: 1.42
GGAGGAUCUAUACCACGGUTT against Gpr74	inactive: -0.143
GGAGAACAAGAUCCUGGAGTT against D3Ertd789e	inactive: -1.04
GCUGGAUCUCAAGAAAAAUTT against Pou4f2	inactive: -0.181
CCUAAAUUCGGUUUGAAUCTT against Fath	active: 2.74
GCUCUGUGUGGUCUCCUAATT against Nrm	inactive: -0.829
GGAACAUGUUUGAGUUUAATT against 2410006F12Rik	inactive: -1.42
GCGACUAUUUUGAAUACCATT against Tlk1	inactive: 1.77
GCCCUCUUAUCUGAAUAAUTT against Stk17b	inactive: 0.201
GCGGUAAUAUCUACGAAGATT against Ina	inactive: 1.59
GGGAAGAAGAAGAAUUUUGTT against Ubap2	inactive: 0.277
GCCCUAUCAACACUUGGGATT against Prrxl1	inactive: 0.0447
GCUCCGAAAGACUAGAUACTT against Spag8	inactive: -1.54
CGCACAUCCUGAAUAUACATT against Drd2	inactive: 0.209
GGAAGAGUGAUGGUUUUAATT against Tollip	inactive: -0.815
GGACAGCAACUAACAUUCATT against D630044F24Rik	inactive: 1.22
GGAGAUGGAUUUUUCUACUTT against F830045P16Rik	inactive: -0.942
CCAGAAUUGGCAGAUUUGCTT against Frap1	inactive: -1.32
GCUAAAAUUGGAUCAAGGATT against Ccbp2	inactive: 2.14
GCUAGCAUAACUUCAGCUATT against Trim45	inactive: 0.332
GGAACUCAGCUACAGUGAATT against D14Ertd209e	inactive: -1.57
GGAGAUCACAGAAAAAACCTT against Colec12	inactive: 0.0649
CGCGUCUCUACAAAAACAUTT against Impa2	inactive: 0.867
GGGCCAACUCAAAACAAAATT against Wdr37	inactive: 1.15

Some of the entries so far, bar-delimited.
Sequence | z-score
GGCAAGGUCUUCAAAGCGCTT against 2410081M15Rik | inactive: 0.562
GCAAUUACAGGAGGAAUUATT against Orc3l | inactive: -0.776

Following part

Sequence	z-score
GGUGUCAUCAAGUUGAAAATT against Mcrs1	inactive: 1.81
GCGGUACAUCAAAUCUGCGTT against 1110067D22Rik	inactive: -0.23
GCCUUGGCCUAAGUUAUACTT against BC055368	inactive: -0.656
GCCCUAAUUGACUAUGAGATT against Snx5	inactive: 0.11
GCACCGUGUCGUUGACUUGTT against A130009K11Rik	inactive: 0.149
GCUGGAUGGAGGCAAAGCATT against C1ql1	inactive: -1.56
GGCUCUGACAGACAAUGGATT against Dpt	inactive: 0.914
GGGUGAUGUGUGACAAUGUTT against Wnt2	inactive: -1.15
GGACAUGGAGAAAAAGUACTT against AI326477	inactive: -0.868
CCAUAUCUAUGAUAUGGUUTT against 9430028L06Rik	inactive: -0.556
GGGAUGCUUUUGGCCCAAATT against 1110008J03Rik	inactive: -0.285
GGACCACUCUGAAUAAGACTT against Ttc12	inactive: -1.62
CCAUUACCUUACCCUCCGATT against Scnm1	inactive: -1.14
GUCAAAAAGCAAGAAGCCUTT against Etd	inactive: 0.575
GGCUGACAAGGAAUUUGUATT against D530005L17Rik	inactive: -0.489
GGUAAAGAGAGAUCCAUCCTT against Pphln1	inactive: -0.913
CGAAUGGAGCCUUAUUACUTT against C130068N17Rik	inactive: 0.628
GGUCUCUUUCCUAUCCAUUTT against Gprc2a	inactive: 2.67
GCAGGUACAAAUCUACUACTT against Myo7b	inactive: 0.56
GGUUCUCUUUGAAGAAACUTT against Amotl2	inactive: -1.56
GGCAUUAAACAAGAAGCUUTT against Dspg3	inactive: -0.861
GGAGUGCUGUAUUUUUGUATT against Gpr68	inactive: -0.927
CCCUGUAUAUAUUUGCUGATT against Clca2	inactive: 0.501
GGACUUGCCACCCAGGAAATT against Apba3	inactive: 0.00652
GCACACUGAAGUGUUUGUATT against Gorasp1	inactive: 0.247
CGAGCCAUACCUUCAACUGTT against Ncoa2	inactive: 0.454

Some values from above.
GGACAUGGAGAAAAAGUACTT against AI326477 – z-score: inactive: -0.868
GCAGGUACAAAUCUACUACTT against Myo7b – z-score: inactive: 0.56
CGAGCCAUACCUUCAACUGTT against Ncoa2 – z-score: inactive: 0.454
GGUCUCUUUCCUAUCCAUUTT against Gprc2a – z-score: inactive: 2.67

Some of the entries so far, field by field.
GGACAUGGAGAAAAAGUACTT against AI326477
  z-score: inactive: -0.868
GGACUUGCCACCCAGGAAATT against Apba3
  z-score: inactive: 0.00652
GCACACUGAAGUGUUUGUATT against Gorasp1
  z-score: inactive: 0.247

(next part)

Sequence	z-score
GGUGGAAGACUUCAGUGAATT against Clgn	inactive: 0.244
GGAUGUAUGAUGCAGUUAUTT against Olfr1211	inactive: 0.388
GGUCAAGGCUGUCAAGUUGTT against 0610008N23Rik	inactive: 1.16
CCCAGGUAGAGACAUUGCUTT against 6330444E15Rik	inactive: -0.298
GGAAUGUGACUGGGCUAGATT against 2310047H23Rik	inactive: -0.271
GGAGUCUUGUAAUGAGCUUTT against Zfp54	inactive: -0.0148
GCAGCAUAUAGAAAACCUATT against Nr1h5	inactive: 0.917
GCUGAGAGUGAACCGAUGUTT against Dyrk4	inactive: 0.0203
GGAUCUCACAGUGAAGAAGTT against A930040G15Rik	inactive: -1.3
GGGAAGGAUUAGCAUGUCGTT against Hrsp12	inactive: 0.0765
GGCUUCUCAGCUAGAAAACTT against 2610528J18Rik	inactive: -0.00214
GGGCUCUGCUAGUUCAAUATT against Lpp	inactive: -2.03
GGUUCUUUGUUACUCUAAGTT against Gabrb3	inactive: -0.886
GCAGAGAGAGCGUGAAUCCTT against AB124611	inactive: 0.255
GGAACAAUGCUCAAUUUUUTT against Recc1	inactive: 0.0368
GGAUCUUUUCAGGUUCUAATT against Olfr659	inactive: -0.553
GGAAAGUGUUCCGAAUAUUTT against Nipa	inactive: -0.194
GGGUGGAAGUGGAAUUUAUTT against 1700052H20Rik	inactive: -0.15
GGAAGGUGGACAGAUUGCATT against Pfkfb3	inactive: -0.492
GGUAAAGUUCAAGUUAAGATT against Atp9b	inactive: 0.451
GCACGAAUCAUUGUUCAAATT against 6330407G04Rik	inactive: -0.635
GGAUGAUGUCAGCACUUUUTT against Tbn	inactive: -0.68
GGAAAACCUAGAGAAGCUGTT against Mast1	inactive: -1.11
CCAUCAUGGCCUUAUCCGUTT against Rfx1	inactive: 0.291
GGCUUGAGUCCUGAGACCATT against Ifna11	inactive: 1.04
